Source: the supplement of paper PMC12819154, “High-throughput peptide-centric local stability assay extends protein–ligand identification to membrane proteins, tissues and bacteria” (Nature Structural & Molecular Biology, 2025)
Some of the results follow. Most values lie at the level of the controls, where differences are scatter.

By UniProt entry, the sequences of proteins in these tests, tags left out. Where a name states a change or a piece, a line headed by the entry shows the natural chain unless it says otherwise.
UniProt Q6UB35, whole entry: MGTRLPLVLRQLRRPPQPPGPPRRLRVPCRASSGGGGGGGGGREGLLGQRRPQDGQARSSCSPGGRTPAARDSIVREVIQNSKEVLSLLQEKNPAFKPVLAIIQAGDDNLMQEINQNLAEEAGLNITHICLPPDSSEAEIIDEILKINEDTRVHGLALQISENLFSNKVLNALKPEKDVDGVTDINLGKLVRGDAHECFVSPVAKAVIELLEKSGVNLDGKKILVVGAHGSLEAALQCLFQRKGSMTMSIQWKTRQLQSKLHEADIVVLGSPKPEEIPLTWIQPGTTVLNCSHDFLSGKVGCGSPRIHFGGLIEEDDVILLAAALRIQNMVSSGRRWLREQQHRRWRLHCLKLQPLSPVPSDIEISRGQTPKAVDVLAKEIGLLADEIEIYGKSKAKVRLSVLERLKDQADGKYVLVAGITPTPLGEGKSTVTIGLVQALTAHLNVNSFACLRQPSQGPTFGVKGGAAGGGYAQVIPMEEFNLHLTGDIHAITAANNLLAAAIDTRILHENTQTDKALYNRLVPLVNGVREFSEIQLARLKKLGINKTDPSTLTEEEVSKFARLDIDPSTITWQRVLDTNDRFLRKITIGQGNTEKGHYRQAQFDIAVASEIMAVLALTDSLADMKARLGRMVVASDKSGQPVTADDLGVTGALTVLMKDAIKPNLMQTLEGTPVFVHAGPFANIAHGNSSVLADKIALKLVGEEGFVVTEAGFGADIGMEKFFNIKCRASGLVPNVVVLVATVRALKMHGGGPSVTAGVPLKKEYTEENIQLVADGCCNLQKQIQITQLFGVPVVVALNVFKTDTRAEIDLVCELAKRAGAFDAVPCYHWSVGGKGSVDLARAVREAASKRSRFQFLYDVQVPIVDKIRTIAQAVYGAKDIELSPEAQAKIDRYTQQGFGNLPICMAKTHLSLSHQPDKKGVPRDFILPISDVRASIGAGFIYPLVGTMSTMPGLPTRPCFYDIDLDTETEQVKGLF
UniProt Q6UY14: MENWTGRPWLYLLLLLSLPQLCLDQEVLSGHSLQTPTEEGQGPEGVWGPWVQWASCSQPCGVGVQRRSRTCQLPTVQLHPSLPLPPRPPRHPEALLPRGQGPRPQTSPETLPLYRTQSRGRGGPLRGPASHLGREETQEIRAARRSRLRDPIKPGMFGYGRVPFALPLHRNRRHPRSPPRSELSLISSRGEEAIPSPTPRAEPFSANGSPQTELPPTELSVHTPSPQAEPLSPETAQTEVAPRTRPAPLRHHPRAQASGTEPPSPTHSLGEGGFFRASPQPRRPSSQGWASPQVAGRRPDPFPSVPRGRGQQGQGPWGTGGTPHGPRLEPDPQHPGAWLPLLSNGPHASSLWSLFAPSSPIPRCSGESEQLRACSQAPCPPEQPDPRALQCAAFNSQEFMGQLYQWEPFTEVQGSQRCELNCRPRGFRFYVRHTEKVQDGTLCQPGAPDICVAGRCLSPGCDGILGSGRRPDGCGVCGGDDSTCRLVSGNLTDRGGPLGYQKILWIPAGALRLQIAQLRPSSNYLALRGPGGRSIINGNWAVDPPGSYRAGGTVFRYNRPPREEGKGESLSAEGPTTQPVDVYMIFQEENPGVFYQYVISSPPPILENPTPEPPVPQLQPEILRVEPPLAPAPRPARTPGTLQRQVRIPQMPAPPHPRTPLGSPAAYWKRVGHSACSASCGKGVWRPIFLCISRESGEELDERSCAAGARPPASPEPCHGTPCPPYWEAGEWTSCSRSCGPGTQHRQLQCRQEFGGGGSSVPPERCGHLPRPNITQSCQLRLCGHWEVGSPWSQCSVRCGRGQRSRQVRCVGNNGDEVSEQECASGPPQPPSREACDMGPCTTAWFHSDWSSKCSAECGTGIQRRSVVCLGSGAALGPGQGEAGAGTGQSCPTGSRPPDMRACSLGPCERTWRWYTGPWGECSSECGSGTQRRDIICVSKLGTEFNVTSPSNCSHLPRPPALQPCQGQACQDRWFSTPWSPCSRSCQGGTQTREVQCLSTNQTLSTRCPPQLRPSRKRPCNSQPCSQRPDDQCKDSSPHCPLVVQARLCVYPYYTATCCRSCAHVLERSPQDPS
UniProt Q6P158: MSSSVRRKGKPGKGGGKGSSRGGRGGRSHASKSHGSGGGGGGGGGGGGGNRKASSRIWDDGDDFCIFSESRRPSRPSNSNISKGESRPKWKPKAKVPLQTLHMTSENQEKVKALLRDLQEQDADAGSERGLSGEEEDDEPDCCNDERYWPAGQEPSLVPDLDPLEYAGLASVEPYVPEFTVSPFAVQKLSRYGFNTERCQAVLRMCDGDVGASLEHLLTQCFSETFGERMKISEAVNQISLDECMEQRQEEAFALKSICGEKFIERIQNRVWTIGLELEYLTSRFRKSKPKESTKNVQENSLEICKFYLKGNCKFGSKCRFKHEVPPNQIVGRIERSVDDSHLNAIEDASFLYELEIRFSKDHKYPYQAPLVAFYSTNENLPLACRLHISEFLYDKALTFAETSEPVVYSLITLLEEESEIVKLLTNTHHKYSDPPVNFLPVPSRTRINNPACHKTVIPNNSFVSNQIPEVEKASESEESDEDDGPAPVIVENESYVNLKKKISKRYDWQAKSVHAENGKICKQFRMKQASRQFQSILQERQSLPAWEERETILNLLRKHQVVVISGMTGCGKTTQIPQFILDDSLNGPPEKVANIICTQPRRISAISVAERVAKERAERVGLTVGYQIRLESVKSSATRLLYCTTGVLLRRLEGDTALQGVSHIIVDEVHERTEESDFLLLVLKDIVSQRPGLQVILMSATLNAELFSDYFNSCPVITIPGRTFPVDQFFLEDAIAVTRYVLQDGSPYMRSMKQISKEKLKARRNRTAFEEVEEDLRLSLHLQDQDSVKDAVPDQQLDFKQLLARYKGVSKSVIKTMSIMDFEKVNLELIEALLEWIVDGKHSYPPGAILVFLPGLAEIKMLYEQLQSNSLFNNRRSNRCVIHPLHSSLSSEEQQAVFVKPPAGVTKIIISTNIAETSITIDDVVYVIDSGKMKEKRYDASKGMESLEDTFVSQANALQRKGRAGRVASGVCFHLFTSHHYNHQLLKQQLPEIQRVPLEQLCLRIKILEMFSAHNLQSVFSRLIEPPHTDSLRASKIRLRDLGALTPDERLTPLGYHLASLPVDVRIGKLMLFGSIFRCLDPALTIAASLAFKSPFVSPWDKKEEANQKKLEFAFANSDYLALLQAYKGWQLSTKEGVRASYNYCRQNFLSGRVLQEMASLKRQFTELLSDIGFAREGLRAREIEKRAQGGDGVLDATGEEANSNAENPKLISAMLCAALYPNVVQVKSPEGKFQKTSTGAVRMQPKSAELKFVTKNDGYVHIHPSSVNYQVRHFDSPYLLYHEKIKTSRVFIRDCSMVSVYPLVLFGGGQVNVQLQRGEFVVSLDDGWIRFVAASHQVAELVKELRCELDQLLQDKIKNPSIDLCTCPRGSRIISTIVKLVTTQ
UniProt Q6NSW5, whole entry: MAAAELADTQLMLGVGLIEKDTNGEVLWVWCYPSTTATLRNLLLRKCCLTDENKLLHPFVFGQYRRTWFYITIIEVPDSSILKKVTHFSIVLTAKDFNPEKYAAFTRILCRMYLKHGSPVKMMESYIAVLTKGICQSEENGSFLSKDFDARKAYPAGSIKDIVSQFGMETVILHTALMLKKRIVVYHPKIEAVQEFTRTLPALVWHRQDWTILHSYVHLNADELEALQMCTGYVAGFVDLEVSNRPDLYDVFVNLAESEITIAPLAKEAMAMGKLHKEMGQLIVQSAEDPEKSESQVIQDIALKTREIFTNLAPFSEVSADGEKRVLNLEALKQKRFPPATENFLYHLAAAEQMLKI
UniProt Q6NUQ1: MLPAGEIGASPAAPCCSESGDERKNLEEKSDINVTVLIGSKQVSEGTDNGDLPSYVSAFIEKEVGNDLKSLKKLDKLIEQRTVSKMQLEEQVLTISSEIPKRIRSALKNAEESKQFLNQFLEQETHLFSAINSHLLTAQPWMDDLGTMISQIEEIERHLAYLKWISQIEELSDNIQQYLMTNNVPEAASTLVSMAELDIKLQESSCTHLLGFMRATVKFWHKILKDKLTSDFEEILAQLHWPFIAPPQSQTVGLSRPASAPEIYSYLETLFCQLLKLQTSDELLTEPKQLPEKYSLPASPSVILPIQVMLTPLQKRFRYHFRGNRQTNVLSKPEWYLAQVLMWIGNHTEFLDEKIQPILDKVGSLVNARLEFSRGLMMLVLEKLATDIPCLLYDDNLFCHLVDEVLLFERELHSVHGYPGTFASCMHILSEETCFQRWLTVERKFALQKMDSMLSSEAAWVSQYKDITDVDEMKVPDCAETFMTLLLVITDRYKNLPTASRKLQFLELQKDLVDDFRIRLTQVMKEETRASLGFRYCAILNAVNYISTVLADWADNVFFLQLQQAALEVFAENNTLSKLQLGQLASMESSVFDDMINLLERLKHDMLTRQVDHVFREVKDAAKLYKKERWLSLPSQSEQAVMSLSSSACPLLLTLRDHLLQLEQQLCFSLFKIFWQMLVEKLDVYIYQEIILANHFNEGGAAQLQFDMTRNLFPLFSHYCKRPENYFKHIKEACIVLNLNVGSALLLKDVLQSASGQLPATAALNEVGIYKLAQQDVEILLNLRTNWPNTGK
UniProt Q6NSJ2: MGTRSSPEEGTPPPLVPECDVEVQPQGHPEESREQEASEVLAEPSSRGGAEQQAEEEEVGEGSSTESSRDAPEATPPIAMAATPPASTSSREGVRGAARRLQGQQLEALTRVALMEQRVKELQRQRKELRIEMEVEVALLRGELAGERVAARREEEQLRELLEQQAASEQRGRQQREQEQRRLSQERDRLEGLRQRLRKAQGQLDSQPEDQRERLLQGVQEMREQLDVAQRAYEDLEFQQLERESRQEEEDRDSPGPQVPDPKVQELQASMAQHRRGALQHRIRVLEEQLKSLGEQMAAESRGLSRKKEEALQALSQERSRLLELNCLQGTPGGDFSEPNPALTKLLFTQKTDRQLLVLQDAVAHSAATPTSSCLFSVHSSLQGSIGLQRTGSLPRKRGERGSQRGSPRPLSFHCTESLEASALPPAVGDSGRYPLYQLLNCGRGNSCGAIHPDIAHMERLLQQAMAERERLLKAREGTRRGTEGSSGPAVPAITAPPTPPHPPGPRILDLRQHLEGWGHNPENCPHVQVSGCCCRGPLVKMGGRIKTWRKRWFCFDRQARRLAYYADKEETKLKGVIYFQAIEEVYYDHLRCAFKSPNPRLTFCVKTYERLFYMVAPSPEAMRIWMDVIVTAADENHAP
UniProt Q659C4: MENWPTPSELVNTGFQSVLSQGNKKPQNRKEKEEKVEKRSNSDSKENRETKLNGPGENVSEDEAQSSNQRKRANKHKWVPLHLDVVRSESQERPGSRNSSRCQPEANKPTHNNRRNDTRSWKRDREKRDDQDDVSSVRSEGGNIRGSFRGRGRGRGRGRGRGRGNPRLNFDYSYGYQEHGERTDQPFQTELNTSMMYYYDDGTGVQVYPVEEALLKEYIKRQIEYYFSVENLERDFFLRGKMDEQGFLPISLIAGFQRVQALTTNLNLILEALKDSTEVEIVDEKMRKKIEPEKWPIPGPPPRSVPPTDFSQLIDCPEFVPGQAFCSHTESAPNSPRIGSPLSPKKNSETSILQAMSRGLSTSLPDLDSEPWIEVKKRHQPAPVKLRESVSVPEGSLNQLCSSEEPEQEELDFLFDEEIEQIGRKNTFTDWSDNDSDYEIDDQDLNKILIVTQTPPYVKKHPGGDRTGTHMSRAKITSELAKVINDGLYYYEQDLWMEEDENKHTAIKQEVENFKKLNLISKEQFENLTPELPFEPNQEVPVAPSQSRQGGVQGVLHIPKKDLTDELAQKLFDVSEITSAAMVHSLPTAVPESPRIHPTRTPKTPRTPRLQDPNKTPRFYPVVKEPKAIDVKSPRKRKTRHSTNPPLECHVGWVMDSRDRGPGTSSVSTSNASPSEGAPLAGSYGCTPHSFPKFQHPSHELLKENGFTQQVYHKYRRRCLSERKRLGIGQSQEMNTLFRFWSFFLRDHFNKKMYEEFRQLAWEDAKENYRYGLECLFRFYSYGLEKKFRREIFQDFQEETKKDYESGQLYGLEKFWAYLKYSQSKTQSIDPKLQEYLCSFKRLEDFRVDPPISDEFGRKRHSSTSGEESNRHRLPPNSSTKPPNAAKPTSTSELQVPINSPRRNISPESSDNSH
UniProt Q6P1Q9: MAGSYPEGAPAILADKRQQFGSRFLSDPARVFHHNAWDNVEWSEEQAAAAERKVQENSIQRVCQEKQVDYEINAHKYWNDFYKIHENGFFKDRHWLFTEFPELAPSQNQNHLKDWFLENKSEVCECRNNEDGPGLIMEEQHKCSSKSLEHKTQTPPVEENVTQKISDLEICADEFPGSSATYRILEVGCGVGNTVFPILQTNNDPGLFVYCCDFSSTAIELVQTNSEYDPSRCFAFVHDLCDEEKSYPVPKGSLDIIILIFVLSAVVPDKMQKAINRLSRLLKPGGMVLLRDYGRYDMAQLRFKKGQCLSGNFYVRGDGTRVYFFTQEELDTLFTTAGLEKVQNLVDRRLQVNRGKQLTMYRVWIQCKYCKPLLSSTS

Compound: CN[C@@H]1C[C@H]2O[C@@](C)([C@@H]1OC)n1c3ccccc3c3c4c(c5c6ccccc6n2c5c31)C(=O)NC4 [staurosporine]
Assay: log2 fold change of tryptic peptide abundance, ligand vs vehicle (limited proteolysis) (log2 ratio); higher = more trypsin-susceptible (destabilized)
Details: ligand concentration: 20 uM; sample: K562 cleared lysate; digestion: 4 min, 22 C (HT-PELSA RT4min, Orbitrap Astral)

Row | Target | log2 fold change
1 | UniProt Q6IPT4 (peptide sequence: FALPGNSQLGLR, peptide start residue: 97) | 0.0651
2 | MTHFD1L (peptide sequence: GSMTMSIQWK, peptide start residue: 244) (UniProt Q6UB35) | -0.361
3 | TTC27 (peptide sequence: IFYCCQVPPHWAIQR, peptide start residue: 430) (UniProt Q6P3X3) | -0.261
4 | ADAMTSL4 (peptide sequence: VPFALPLHR, peptide start residue: 162) (UniProt Q6UY14) | 0.357
5 | DHX57 (peptide sequence: HFDSPYLLYHEK, peptide start residue: 1275) (UniProt Q6P158) | -0.641
6 | UniProt Q6NSW5 (peptide sequence: TLPALVWHR, peptide start residue: 199) | -0.357
7 | RINT1 (peptide sequence: MQLEEQVLTISSEIPKR, peptide start residue: 86) (UniProt Q6NUQ1) | 0.153
8 | MBNL2 (peptide sequence: ALNVAPVRDTK, peptide start residue: 2) (UniProt Q5VZF2) | -0.197
9 | PHLDB3 (peptide sequence: GNSCGAIHPDIAHMER, peptide start residue: 445) (UniProt Q6NSJ2) | 1.41
10 | LARP2 (peptide sequence: HKWVPLHLDVVR, peptide start residue: 76) (UniProt Q659C4) | -0.675
11 | METTL2B (peptide sequence: TQTPPVEENVTQK, peptide start residue: 152) (UniProt Q6P1Q9) | -0.348

2 entries from above, tab-delimited:
Row	Target	log2 fold change
7	RINT1 (peptide sequence: MQLEEQVLTISSEIPKR, peptide start residue: 86) (UniProt Q6NUQ1)	0.153
8	MBNL2 (peptide sequence: ALNVAPVRDTK, peptide start residue: 2) (UniProt Q5VZF2)	-0.197
